# Some results were stated once for a whole list of compounds, not compound by compound.
# System: human peripheral blood cells (lymphocytes)
# Assay: Immunostimulant activity: human lymphocyte proliferation, BrdU labeling after 3 days of culture
# Type: cell-based
structure (smiles),measurement,value
"CC(=O)C[C@@H]1OC[C@@H](O)[C@H](O)[C@H]1O [Compound 1, 1-(C-β-D-Xylopyranosyl)propan-2-one]",concentration from which human lymphocyte proliferation is stimulated,≥ 1 mM
"CC(=O)C[C@@H]1O[C@H](CO)[C@@H](O)[C@H](O)[C@H]1O [Compound 2, 1-(C-β-D-Glucopyranosyl)propan-2-one]",concentration from which human lymphocyte proliferation is stimulated,≥ 1 mM

# Source: US20070248556A1, “Administration of C-glycoside compounds for activating and regulating cutaneous immunity” (L'OREAL, priority 2006, published 2007)
